# Reference: PubChem BioAssay AID504467 (National Center for Advancing Translational Sciences (NCATS), 2011)
# Among all 330,000 compounds or so, about 7,700 (2.3%) were called active. The shares of active, inactive and inconclusive entries below differ from those in the screen. Calls come from the whole dose curve; as a rule, active = well fitted inhibition curve with a large enough effect; inconclusive = small, poorly fitted or top-dose-only effect, or effect the other way; inactive = flat fitted curve, though single readings scatter. A potency beside an inconclusive call is a rough fit, not a confirmed value.
# Assay: qHTS screen for small molecules that inhibit ELG1-dependent DNA repair in human embryonic kidney (HEK293T) cells expressing luciferase-tagged ELG1; note: nearly all actives have a fitted effect of over 55% in size
# Details: HEK293T ELG1-luciferase reporter, luminescence, 16 h, DNA damage induced by 5-fluorouridine; series mostly up to 46.1 µM
# Summary of the method: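 Luminescence from the luciferase reporter, measured 30 min after ONE-Glo reagent at room temperature, was the read-out. Beforehand, 2,000 cells per well were exposed for 16 hr at 37 °C to 5-fluorouridine together with compound or vehicle.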
# Potency is the fitted concentration of half-maximal effect.
row,Structure (SMILES),Potency
1,Cc1cc(C(=O)Nc2ccccc2C(=O)O)ccc1NC(=O)COc1cccc(C)c1C,inactive
2,CS(=O)(=O)N(CC(=O)Nc1ccccc1F)C1CCCCC1,inactive
3,Cc1ccc(-c2cc3nc(-c4ccccc4)cc(N4CCOCC4)n3n2)cc1,"inconclusive: 29.1 µM [inhibitor, single point]"
4,CC(=O)Nc1c(C)cc(OCC(=O)O)cc1C,inactive
5,Fc1ccccc1/C=N/Nc1nc(-c2ccccn2)nc2ccccc12,"inconclusive: 5.8 µM [inhibitor, full curve]"
6,CC(=O)c1ccc(NC(=O)CSc2nc3nc(C)cc(C)n3n2)cc1,"inconclusive: 16.4 µM [activator, partial curve, poor fit]"
7,COc1ccc(NS(=O)(=O)c2ccc3oc(SC(C)C(N)=O)nc3c2)cc1 (stereo not given),inactive
8,CCc1cc2c(=O)oc(-c3ccc(Br)cc3)nc2s1,"inconclusive: 23.1 µM [activator, single point]"
9,Cc1ccc(Oc2nc3ccccc3n3c(C)nnc23)cc1,"inconclusive: 4.61 µM [inhibitor, partial curve, poor fit]"
10,COC(=O)CSc1nc(COc2ccccc2)nc2ccccc12,inactive
11,C=CCC1CCCCC12NC(=O)N(c1ccccc1)N2 (stereo not given),"inconclusive: 4.11 µM [activator, single point]"
12,CCN(CC)c1ccc(-c2nnc(SCC(=O)N(CCOC)c3c(N)n(CC(C)C)c(=O)[nH]c3=O)o2)cc1,inactive
13,CC(=O)c1c(C)[nH]c(C(=O)OCc2ccccc2F)c1C,"inconclusive: 6.51 µM [activator, partial curve, poor fit]"
14,Cc1cc(N2C(=O)Cc3ccccc3C2=O)ccc1C(C)C,"inconclusive: 10.3 µM [activator, partial curve]"
15,Cc1cc2nnc(SCC(=O)Nc3cccc(S(=O)(=O)N4CCOCC4)c3)n2c2ccccc12,"inconclusive: 29.1 µM [inhibitor, single point]"
16,CCOc1cc(N2CCOCC2)c(OCC)cc1NC(=O)c1ccc(-n2ccnc2)c([N+](=O)[O-])c1,"inconclusive: 20.6 µM [inhibitor, partial curve]"
17,COc1ccc(NS(=O)(=O)c2ccc(N/N=C(\C)c3ccncc3)c([N+](=O)[O-])c2)cc1,active: 18.4 µM
18,O=C(N/N=C/c1ccc([N+](=O)[O-])s1)C(O)c1ccccc1 (stereo not given),"inconclusive: 5.17 µM [inhibitor, full curve]"
19,O=C1CN(/N=C/c2ccc([N+](=O)[O-])o2)C(=O)N1,"inconclusive: 20.6 µM [inhibitor, single point]"
20,O=S(=O)(c1ccc(N2CCOCC2)c(Cl)c1)N1CCOCC1,inactive
21,O=C(NCCCn1ccnc1)c1cc2nc(-c3ccc(Br)cc3)cc(C(F)(F)F)n2n1,inactive
22,O=C(CSc1ccsc1[N+](=O)[O-])NC1CCCC1,inactive
23,CC1(C)NC(=O)N(CC(=O)OCC(=O)c2ccc(F)cc2)C1=O,"inconclusive: 20.6 µM [activator, single point]"
24,Fc1cccc(-c2nn[nH]n2)c1,inactive

row,Structure (SMILES),Potency
1,CCc1ccc(N2CC(C(=O)N3CCCCCC3)CC2=O)cc1 (stereo not given),"inconclusive: 18.3 µM [activator, single point]"
2,NC(N)=NC(=O)c1nc(Cl)c(N2CCCCCC2)nc1N,"inconclusive: 2.51 µM [activator, full curve]"
3,Cc1ccc2nc3c(cc2c1)c(NS(=O)(=O)c1ccccc1)nn3CC(C)C,inactive
4,COc1ccc(N2CCN(c3cnc4ccccc4n3)CC2)cc1,"inconclusive: 16.4 µM [activator, partial curve]"
5,O=C(COc1ccc(S(=O)(=O)NC2CCCCC2)cc1)NCCC1=CCCCC1,"inconclusive: 8.2 µM [inhibitor, partial curve, poor fit]"
6,CS(=O)(=O)c1ccc(C(=O)OCC(=O)NC(=O)C2CCCCC2)cc1[N+](=O)[O-],"inconclusive: 29.1 µM [activator, single point]"
7,Cc1ccc(CNC(=O)c2oc3ccc(S(=O)(=O)N4CCOCC4)cc3c2C)cc1,"inconclusive: 23.1 µM [inhibitor, single point]"
8,COc1ccc(N=Cc2sc(O)c3ccccc23)cc1,"inconclusive: 3.66 µM [activator, partial curve]"
9,CCN1C(=NCCN2CCOCC2)N[C@@H](c2ccccc2)C(C(=O)OC)=C1C,"inconclusive: 0.73 µM [activator, partial curve, poor fit]"
10,O=C(NCC1CCCCC1)c1ccc(=O)[nH]c1,inactive
11,CCc1cc2c(=O)c(-c3cnn(-c4ccccc4)c3)c(C)oc2cc1OCC(=O)Nc1cccc(C)c1,inactive
12,O=C(CNC(=O)OCc1ccccc1)Nc1ccc(F)cc1,inactive
13,NC1=NC(=O)S/C1=C\c1ccc(F)cc1,inactive
14,Cc1ccc(N/C(C(Cl)=C(Cl)Cl)=C(/Cl)[N+](=O)[O-])c(C)c1,inactive
15,C=CCn1c(CCC(O)COCCCCC)n[nH]c1=S (stereo not given),inactive
16,CC(C)c1ccc(NC(=O)C2CCN(C(=O)[C@@H]3Cc4ccccc4CN3)CC2)cc1,"inconclusive: 23.1 µM [activator, single point]"
17,CCc1ccc(N2C(=O)CN(Cc3cccs3)C2=S)cc1,"inconclusive: 29.1 µM [activator, single point]"
18,COc1cccc(C(=O)N[C@@H](C)C(=O)N2CCC3(CC2)NCCc2[nH]cnc23)c1,"inconclusive: 29.1 µM [activator, partial curve, poor fit]"
19,COc1cccc(-c2noc(CCC(=O)N3CCN(c4cc(C)ccc4C)CC3)n2)c1,"inconclusive: 18.3 µM [activator, partial curve, poor fit]"
20,O=C(NC1CCN(C(=S)Nc2ccccc2Cl)CC1)C1CCCCC1,"inconclusive: 0.164 µM [inhibitor, single point]"
21,CC1=C(C(=O)OCc2ccccc2)C(c2ccc([N+](=O)[O-])cc2)NC(=O)N1 (stereo not given),"inconclusive: 29.1 µM [inhibitor, partial curve, poor fit]"
22,COc1ccccc1C1CCN(c2ccc(CO)cc2[N+](=O)[O-])CC1,inactive
23,S=C(N/N=C/c1ccc(Br)cc1)N1CCCCC1,"inconclusive: 20.6 µM [activator, partial curve]"
24,O=[N+]([O-])c1cc(S(=O)(=O)NC2=NCCCCC2)ccc1NCC1CCCCC1,"inconclusive: 20.6 µM [inhibitor, single point]"

row,Structure (SMILES),Potency
1,CCCCOC(=O)c1ccc(OC(=O)c2cccnc2)cc1,"inconclusive: 20.6 µM [activator, single point]"
2,COc1ccc(-c2n[nH]c(C)c2-c2cnn(-c3ccccc3)c2)c(O)c1,inactive
3,CCC1CCCCN1CCCNC(=O)C1CCCN(c2nn3c(=O)cc(C)nc3s2)C1 (stereo not given),"inconclusive: 32.6 µM [activator, partial curve, poor fit]"
4,COc1ccc(C(=O)Nc2cc(Cl)ccc2Cl)c(OC)n1,"inconclusive: 7.31 µM [activator, partial curve, poor fit]"
5,CCOC(=O)[C@H]1[C@H]2COc3ccc(Br)cc3[C@@H]2N2C(=O)CN(CC3CCCO3)C(=O)[C@@]12C (stereo not given in full),inactive
6,O=C(NC1CCCCC1)C(c1ccc2ncccc2c1)N(Cc1ccccc1)C(=O)c1ccc2c(c1)OCCO2 (stereo not given),"inconclusive: 29.1 µM [inhibitor, single point]"
7,COCCn1c(C)cc(C(=O)COC(=O)c2ccc(NC(=O)CC#N)cc2)c1C,"inconclusive: 2.31 µM [activator, full curve]"
8,Cc1ccc(Nc2nc(N)nc(COC(=O)c3ccc(Br)o3)n2)cc1,"inconclusive: 16.4 µM [activator, partial curve, poor fit]"
9,COc1cccc(C2c3[nH]c4ccccc4c3C[C@H]3C(=O)N(c4ccccc4C(=O)N4CCC(C(=O)O)CC4)C(=O)N23)c1 (stereo not given in full),"inconclusive: 0.073 µM [activator, partial curve, poor fit]"
10,CCOc1ccc(CCNC(=O)COn2nnc3ccc(S(=O)(=O)N4CCOCC4)cc32)cc1OCC,inactive
11,O=C1c2ccccc2C(=O)C1c1ccc2ccccc2n1,"inconclusive: 0.013 µM [activator, full curve, poor fit]"
12,O=C(c1ccncc1)N(Cc1cc2ccccc2[nH]c1=O)C1CCCCC1,"inconclusive: 18.4 µM [inhibitor, partial curve, poor fit]"
13,N#CC1=C(N)Oc2cc(N)ccc2C1C1CC=CCC1 (stereo not given),"inconclusive: 5.8 µM [inhibitor, full curve]"
14,COc1cccc(NC(=O)[C@@H](NC(=O)N2CCn3c2nc2ccccc23)C(C)C)c1,inactive
15,C=C(C(=O)c1ccccc1)C(C)C(=C)C(=O)c1ccccc1,active: 20.6 µM
16,Cc1nc(-c2ccc(S(=O)(=O)Oc3ccc(Cl)cc3Cl)s2)cs1,"inconclusive: 18.3 µM [inhibitor, single point]"
17,COc1ccc(CNC2CCCc3ccccc32)c(OC)c1 (stereo not given),"inconclusive: 6.51 µM [inhibitor, single point]"
18,CC(c1ccccc1)N(C)C(=O)CSc1nnc(C2CC2)n1C1CC1 (stereo not given),inactive
19,Cc1cc(C)cc(-n2c(C)c3c(C)nnc(C)c3c2C)c1,inactive
20,CCOC(=O)c1sc(=S)n(C)c1NC(=O)c1ccccc1Cl,inactive
21,O=C(NCC(c1cccs1)N1CCOCC1)c1ccccc1NS(=O)(=O)c1cc([N+](=O)[O-])ccc1Cl (stereo not given),"inconclusive: 20.6 µM [inhibitor, partial curve, poor fit]"
22,C=CCc1cccc(/C=N/NC(=O)C(C)Nc2cccc(C)c2)c1O (stereo not given),"inconclusive: 6.51 µM [inhibitor, partial curve, poor fit]"

# Exported with bars between the fields: entries from further up
row | Structure (SMILES) | Potency
6 | O=C(NC1CCCCC1)C(c1ccc2ncccc2c1)N(Cc1ccccc1)C(=O)c1ccc2c(c1)OCCO2 (stereo not given) | inconclusive: 29.1 µM [inhibitor, single point]
8 | Cc1ccc(Nc2nc(N)nc(COC(=O)c3ccc(Br)o3)n2)cc1 | inconclusive: 16.4 µM [activator, partial curve, poor fit]
11 | O=C1c2ccccc2C(=O)C1c1ccc2ccccc2n1 | inconclusive: 0.013 µM [activator, full curve, poor fit]
17 | COc1ccc(CNC2CCCc3ccccc32)c(OC)c1 (stereo not given) | inconclusive: 6.51 µM [inhibitor, single point]
22 | C=CCc1cccc(/C=N/NC(=O)C(C)Nc2cccc(C)c2)c1O (stereo not given) | inconclusive: 6.51 µM [inhibitor, partial curve, poor fit]
